Data as given in PubChem BioAssay AID1259254 (NCATS, 2017).
Screen: 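Genome-wide screen for genes that prevent DNA re-replication in cancer cells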 (primary screen). Cells: human HCT116 colorectal cancer cells. Reagent: single siRNA against human genes. Timing: 3 days. Measurement: 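Nuclei stained with Hoechst and imaged; cell-cycle phase assigned by DNA content; G2 share scaled per plate, non-targeting siRNA 0%, GMNN siRNA 100%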. Reading the numbers: G2 robust z-score: higher = more G2 cells, more excess DNA replication. Hit rule: 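An siRNA counts as active if its G2 robust z-score lies at least 5 MADs above the screen median; here such calls match roughly 38% of GMNN control or more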.
In all, the deposit lists about 59,000 reagents; below is a part drawn at random. About 1,550 of them (2.6%) count as active. 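G2 share is only a proxy for re-replication; each gene was hit by three separate siRNAs, and active genes were retested.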 Entries without a mark were called inactive. The numbers tell different reagents against one gene apart. Not all columns of the deposit are shown. No sequences are given here. Not stated in the record: the amount of reagent.

SREK1IP1 (GeneID 285672) #1 | G2 robust z-score: -1.23
SREK1IP1 (GeneID 285672) #2 | G2 robust z-score: -1.15
SREK1IP1 (GeneID 285672) #3 | G2 robust z-score: 0.0588
LRRN2 (GeneID 10446) #1 | G2 robust z-score: -0.0439
LRRN2 (GeneID 10446) #2 | G2 robust z-score: 2.53
LRRN2 (GeneID 10446) #3 | G2 robust z-score: -1.07
DBT (GeneID 1629) #1 | G2 robust z-score: 0.626
DBT (GeneID 1629) #2 | G2 robust z-score: -0.302
DBT (GeneID 1629) #3 | G2 robust z-score: -0.64
SLC12A6 (GeneID 9990) #1 | G2 robust z-score: -0.114
SLC12A6 (GeneID 9990) #2 | G2 robust z-score: -0.804
SLC12A6 (GeneID 9990) #3 | G2 robust z-score: 0.0458
CCDC198 (GeneID 55195) #1 | G2 robust z-score: -1.03
CCDC198 (GeneID 55195) #2 | G2 robust z-score: -0.785
CCDC198 (GeneID 55195) #3 | G2 robust z-score: -0.19
TTLL13 (GeneID 440307) #1 | G2 robust z-score: -0.495
TTLL13 (GeneID 440307) #2 | G2 robust z-score: 1.83
TTLL13 (GeneID 440307) #3 | G2 robust z-score: 1.53

Continued; the last 4 above are carried over.
CCDC198 (GeneID 55195) #3 | G2 robust z-score: -0.19
TTLL13 (GeneID 440307) #1 | G2 robust z-score: -0.495
TTLL13 (GeneID 440307) #2 | G2 robust z-score: 1.83
TTLL13 (GeneID 440307) #3 | G2 robust z-score: 1.53
HELT (GeneID 391723) #1 | G2 robust z-score: 2.99
HELT (GeneID 391723) #2 | G2 robust z-score: 3.86
HELT (GeneID 391723) #3 | G2 robust z-score: -1.19
IKBKB (GeneID 3551) #1 | G2 robust z-score: 2.15
IKBKB (GeneID 3551) #2 | G2 robust z-score: 0.469
IKBKB (GeneID 3551) #3 | G2 robust z-score: 0.218
EMC8 (GeneID 10328) #1 | G2 robust z-score: -1.32
EMC8 (GeneID 10328) #2 | G2 robust z-score: 1.38
EMC8 (GeneID 10328) #3 | G2 robust z-score: 1.52
SLC25A12 (GeneID 8604) #1 | G2 robust z-score: 3.89
SLC25A12 (GeneID 8604) #2 | G2 robust z-score: -0.201
SLC25A12 (GeneID 8604) #3 | G2 robust z-score: -1.47
